PubChem BioAssay AID1224830 | NIAID | 2016

Aim: 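Host factors that control LPS-induced TNF expression in human macrophages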 (primary screen)
System: human THP-1 monocytic leukaemia cells, TNF dual-luciferase reporter clone, PMA-differentiated to macrophage-like cells
Knock-down reagent: siRNA pool against human genes, 50 nM
Time to read-out: LPS for 4 h, given about 3 days after siRNA transfection
Challenge: bacterial LPS (TLR4 ligand), 10 ng/ml
Measurement: 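TNF firefly reporter luminescence divided by renilla, normalised to the plate median, then turned into a robust z-score for each replicate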
Direction: TNF reporter robust z-score: higher = stronger TNF reporter response to LPS
Active means: 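a well is active when its z-score exceeds 2.8 or falls below -1.5; control wells carry no call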
In all, the deposit lists about 18,000 reagents; this is an unselected part. About 2,900 of them (16%) count as active. 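Calls are made per well; low scores hint the gene aids the LPS response, high scores that it dampens it.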 Repeated entries: four replicate wells of each siRNA pool. Reagent sequences are not shown.

| target | PubChem SID | TNF reporter robust z-score | activity call |
| --- | --- | --- | --- |
| ODAD1 | SID315461067 | -0.93 | inactive |
| ODAD1 | SID315461067 | -1.04 | inactive |
| ODAD1 | SID315461067 | 4.28 | active |
| ODAD1 | SID315461067 | -1.08 | inactive |
| SRSF3 | SID315451386 | -0.92 | inactive |
| SRSF3 | SID315451386 | -1.03 | inactive |
| SRSF3 | SID315451386 | -1.48 | inactive |
| SRSF3 | SID315451386 | -0.98 | inactive |
| RNF113A | SID315452269 | 3.14 | active |
| RNF113A | SID315452269 | 0.65 | inactive |
| RNF113A | SID315452269 | 2.44 | inactive |
| RNF113A | SID315452269 | 1.62 | inactive |
| CRHR2 | SID315448090 | 0.13 | inactive |
| CRHR2 | SID315448090 | 0.17 | inactive |
| CRHR2 | SID315448090 | -0.15 | inactive |
| CRHR2 | SID315448090 | 0.44 | inactive |
| BCS1L | SID315447536 | -1.45 | inactive |
| BCS1L | SID315447536 | 0.22 | inactive |
| BCS1L | SID315447536 | -0.98 | inactive |
| BCS1L | SID315447536 | -1 | inactive |
| RNF185 | SID315460915 | -1.4 | inactive |
| RNF185 | SID315460915 | -2.04 | active |
| RNF185 | SID315460915 | -0.43 | inactive |
| RNF185 | SID315460915 | 0.35 | inactive |
| CHST13 | SID315462834 | 1.12 | inactive |
| CHST13 | SID315462834 | 1.09 | inactive |
| CHST13 | SID315462834 | 0.1 | inactive |
| CHST13 | SID315462834 | 1.46 | inactive |
| GRWD1 | SID315460079 | 1.35 | inactive |
| GRWD1 | SID315460079 | 2.51 | inactive |
| GRWD1 | SID315460079 | 1.99 | inactive |
| GRWD1 | SID315460079 | 0.76 | inactive |
| APOE | SID315447362 | -0.37 | inactive |
| APOE | SID315447362 | 0.31 | inactive |
| APOE | SID315447362 | 0.1 | inactive |
| APOE | SID315447362 | 2.19 | inactive |
| RPF2 | SID315460215 | 3.15 | active |
| RPF2 | SID315460215 | 1.97 | inactive |
| RPF2 | SID315460215 | -0.93 | inactive |
| RPF2 | SID315460215 | 0.02 | inactive |
| AIF1 | SID315447253 | -0.71 | inactive |
| AIF1 | SID315447253 | -0.31 | inactive |
| AIF1 | SID315447253 | -0.47 | inactive |
| AIF1 | SID315447253 | 0.2 | inactive |

Reprinted from the entries so far (18 entries):
| target | PubChem SID | TNF reporter robust z-score | activity call |
| --- | --- | --- | --- |
| RNF185 | SID315460915 | 0.35 | inactive |
| CHST13 | SID315462834 | 1.12 | inactive |
| CHST13 | SID315462834 | 1.09 | inactive |
| CHST13 | SID315462834 | 0.1 | inactive |
| CHST13 | SID315462834 | 1.46 | inactive |
| GRWD1 | SID315460079 | 1.35 | inactive |
| GRWD1 | SID315460079 | 2.51 | inactive |
| GRWD1 | SID315460079 | 1.99 | inactive |
| GRWD1 | SID315460079 | 0.76 | inactive |
| APOE | SID315447362 | -0.37 | inactive |
| APOE | SID315447362 | 0.31 | inactive |
| APOE | SID315447362 | 0.1 | inactive |
| APOE | SID315447362 | 2.19 | inactive |
| RPF2 | SID315460215 | 3.15 | active |
| RPF2 | SID315460215 | 1.97 | inactive |
| RPF2 | SID315460215 | -0.93 | inactive |
| RPF2 | SID315460215 | 0.02 | inactive |
| AIF1 | SID315447253 | -0.71 | inactive |

Next entries follow.
| target | PubChem SID | TNF reporter robust z-score | activity call |
| --- | --- | --- | --- |
| CCR3 | SID315447982 | -0.58 | inactive |
| CCR3 | SID315447982 | 0.19 | inactive |
| CCR3 | SID315447982 | -0.42 | inactive |
| CCR3 | SID315447982 | -0.54 | inactive |
| FYN | SID315448784 | -0.09 | inactive |
| FYN | SID315448784 | -0.03 | inactive |
| FYN | SID315448784 | 0.72 | inactive |
| FYN | SID315448784 | -0.17 | inactive |
| SLC18A1 | SID315451504 | 0.67 | inactive |
| SLC18A1 | SID315451504 | 0.34 | inactive |
| SLC18A1 | SID315451504 | 0.17 | inactive |
| SLC18A1 | SID315451504 | 1.9 | inactive |
| PEF1 | SID315465041 | -0.45 | inactive |
| PEF1 | SID315465041 | -0.21 | inactive |
| PEF1 | SID315465041 | 0.03 | inactive |
| PEF1 | SID315465041 | -0.38 | inactive |
| MKRN3 | SID315452239 | 1.32 | inactive |
| MKRN3 | SID315452239 | 5.45 | active |
| MKRN3 | SID315452239 | 0.44 | inactive |
| MKRN3 | SID315452239 | 0.72 | inactive |
| CD96 | SID315453922 | 3.11 | active |
| CD96 | SID315453922 | 1.39 | inactive |
| CD96 | SID315453922 | 0.84 | inactive |
| CD96 | SID315453922 | 0.4 | inactive |
| INPP5D | SID315449516 | 0.01 | inactive |
| INPP5D | SID315449516 | -0.45 | inactive |
| INPP5D | SID315449516 | 0.06 | inactive |
| INPP5D | SID315449516 | -0.09 | inactive |
| ING1 | SID315449504 | -1.55 | active |
| ING1 | SID315449504 | -0.32 | inactive |
| ING1 | SID315449504 | -1.13 | inactive |
| ING1 | SID315449504 | 0.89 | inactive |
| TMEM59 | SID315453357 | -1.19 | inactive |
| TMEM59 | SID315453357 | -1.15 | inactive |
| TMEM59 | SID315453357 | -1.21 | inactive |
| TMEM59 | SID315453357 | -1.52 | active |
| NFKB2 | SID315450233 | 2.08 | inactive |
| NFKB2 | SID315450233 | 3.38 | active |
| NFKB2 | SID315450233 | 3.01 | active |
| NFKB2 | SID315450233 | 3.07 | active |
| SYNM | SID315455170 | -1.03 | inactive |
| SYNM | SID315455170 | -0.53 | inactive |
| SYNM | SID315455170 | -1.25 | inactive |
| SYNM | SID315455170 | -0.91 | inactive |
| PLAAT2 | SID315457318 | 0.37 | inactive |
| PLAAT2 | SID315457318 | 1.94 | inactive |
| PLAAT2 | SID315457318 | 1.41 | inactive |
| PLAAT2 | SID315457318 | 1.65 | inactive |
| BOLA2 | SID315465040 | 0.26 | inactive |
| BOLA2 | SID315465040 | 2.18 | inactive |
| BOLA2 | SID315465040 | 0.38 | inactive |
| BOLA2 | SID315465040 | 0.23 | inactive |
| ANKRD54 | SID315461827 | -0.54 | inactive |
| ANKRD54 | SID315461827 | -0.79 | inactive |
| ANKRD54 | SID315461827 | -1.14 | inactive |
| ANKRD54 | SID315461827 | -1.04 | inactive |
| TEX10 | SID315457234 | -0.71 | inactive |
| TEX10 | SID315457234 | -0.55 | inactive |
| TEX10 | SID315457234 | 0.01 | inactive |
| TEX10 | SID315457234 | -0.16 | inactive |
| RAB40B | SID315454497 | -1.12 | inactive |
| RAB40B | SID315454497 | 0.8 | inactive |
| RAB40B | SID315454497 | 1.41 | inactive |
| RAB40B | SID315454497 | 0.9 | inactive |
| KRTAP26-1 | SID315464522 | -0.16 | inactive |
| KRTAP26-1 | SID315464522 | 1.5 | inactive |
| KRTAP26-1 | SID315464522 | 2.12 | inactive |
| KRTAP26-1 | SID315464522 | -0.37 | inactive |
